Results reported in patent publication US20190093170A1, “USE OF TRANSLATIONAL PROFILING TO IDENTIFY TARGET MOLECULES FOR THERAPEUTIC TREATMENT” (THE REGENTS OF THE UNIVERSITY OF CALIFORNIA, priority 2013, published 2019).

Columns and labels:
[1] = system: 4EBP1, p70S6K1/2 and AKT; test: Western blot of downstream mTOR effectors in PC3 cells; type: cell-based, human; conditions: rapamycin (50 nM), PP242 (2.5 μM), 3 hours
[2] = system: PC3 human prostate cancer cells; test: Ribosome profiling: translational efficiency (ribosome footprint vs RNA-seq read density); type: cell-based; conditions: log2≤−1.5 (false discovery rate <0.05), PP242 as compared to rapamycin treatment, 3 hr;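 further: Per-gene footprint-to-mRNA density ratio averaged per codon over the coding sequence, scaled so the median gene equals 1.0 after excluding regulated genes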

CC(C)n1nc(-c2cc3cc(O)ccc3[nH]2)c2c(N)ncnc21 [PP242]
activity of the three primary downstream mTOR effectors 4EBP1, p70S6K1/2 and AKT [1]: significantly inhibited
number of target mRNAs selectively decreased at the translational level [2]: 144
